According to patent US20180305449A1 (ONCOMED PHARMACEUTICALS, published 2018):
No constants are given. Whether binding was seen depends on the method and setting. Some binding calls cover weakened binding; strength is not graded here.

Protein sequences, listed by entry. Tags and fused reporters are not part of them. Residues count along the entry.
UniProt Q9NR61, residues 27-522: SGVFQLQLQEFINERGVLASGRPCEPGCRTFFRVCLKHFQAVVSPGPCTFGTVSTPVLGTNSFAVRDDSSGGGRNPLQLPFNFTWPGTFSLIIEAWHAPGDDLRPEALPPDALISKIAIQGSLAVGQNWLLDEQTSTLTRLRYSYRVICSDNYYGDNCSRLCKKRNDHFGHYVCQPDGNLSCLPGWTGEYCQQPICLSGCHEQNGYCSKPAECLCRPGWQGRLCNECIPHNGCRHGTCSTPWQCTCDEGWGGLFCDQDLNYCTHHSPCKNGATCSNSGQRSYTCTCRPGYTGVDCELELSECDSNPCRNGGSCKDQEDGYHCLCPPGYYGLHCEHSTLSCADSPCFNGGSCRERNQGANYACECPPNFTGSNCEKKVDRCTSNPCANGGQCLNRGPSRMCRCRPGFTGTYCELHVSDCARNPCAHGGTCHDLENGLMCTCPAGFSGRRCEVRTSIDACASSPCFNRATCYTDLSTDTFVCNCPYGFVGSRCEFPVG

These binders were tested against T1, biotin-DLL4-hFc (UniProt Q9NR61 27-522, limits assumed, biotinylated (site not stated)) (assay: bispecific sandwich ELISA: antibody pre-incubated with 2 ug/ml biotin-DLL4-hFc, captured on VEGF-coated plate, detected with streptavidin-HRP).
T1 construct: not shown: human Fc (hFc)
Procedure: (§1) FIG. 7. Bispecific antibody ELISA. Bispecific antibodies 219R45-MB-21M18, 219R45-MB-21R79, 219R45-MB-21R75, and 219R45-MB-21R83 were diluted in blocking buffer (lx PBS, 0.1% gelatin, 0.1% Polysorbate-20, pH 7.4) containing 2 μg/ml biotin-DLL4-hFc. The antibodies were serially diluted 3-fold from 500 ng/ml to 0.008 ng/ml. The antibody samples were incubated for 2 hours in blocking buffer containing the biotin-DLL4-hFc. After incubation, the antibody samples were transferred to a VEGF-coated assay plate (100 ul/well) and incubated for 2 hours. Streptavidin-HRP was added to each well and incubated for 1 hr. TMB substrate was added to the wells with a 10 minute color development and the reaction was stopped with 2M sulfuric acid. Absorbance was read at 450-650 nm and the data analyzed using the 4-parameter fit within the Softmax Pro analysis program.
as §1, with “VEGF (ATGEN, South Korea) was coated onto Nunc maxisorb plates at 2 ug/ml (100 μl/well) and incubated overnight at 2-8° C. Bispecific” for “FIG. 7. Bispecific antibody ELISA. Bispecific”, “to the” for “to a”, “Streptavidin-HRP (Jackson ImmunoResearch, West Grove, Pa.)” for “Streptavidin-HRP”, “analysis program (Molecular Devices, Sunnyvale, Calif.).” for “analysis program.”

Row | Binder | binding
1 | anti-VEGF/anti-DLL4 bispecific antibody 219R45-MB-21R83 (bispecific antibody, human IgG2, Monovalent/bispecific IgG2 heterodimer with charge-modified CH3 domains and two identical light chains) heavy 1: QVQLVQSGAEVKKPGASVKVSCKASGYTFTNYWMHWVRQAPGQGLEWMGDINPSNGRTSYKEKFKRRVTLSVDKSSSTAYMELSSLRSEDTAVYFCTIHYDDKYYPLMDYWGQGTLVTVSSASTKGPSVFPLAPCSRSTSESTAALGCLVKDYFPEPVTVSWNSGALTSGVHTFPAVLQSSGLYSLSSVVTVPSSNFGTQTYTCNVDHKPSNTKVDKTVERKCCVECPPCPAPPVAGPSVFLFPPKPKDTLMISRTPEVTCVVVDVSHEDPEVQFNWYVDGVEVHNAKTKPREEQFNSTFRVVSVLTVVHQDWLNGKEYKCKVSNKGLPAPIEKTISKTKGQPREPQVYTLPPSREKMTKNQVSLTCLVKGFYPSDIAVEWESNGQPENNYKTTPPMLKSDGSFFLYSKLTVDKSRWQQGNVFSCSVMHEALHNHYTQKSLSLSPGK heavy 2: QVQLVQSGAEVKKPGASVKISCKASGYSFTAYYIHWVKQAPGQGLEWIGYISNYNRATNYNQKFKGRVTFTTDTSTSTAYMELRSLRSDDTAVYYCARDYDYDVGMDYWGQGTLVTVSSASTKGPSVFPLAPCSRSTSESTAALGCLVKDYFPEPVTVSWNSGALTSGVHTFPAVLQSSGLYSLSSVVTVPSSNFGTQTYTCNVDHKPSNTKVDKTVERKCCVECPPCPAPPVAGPSVFLFPPKPKDTLMISRTPEVTCVVVDVSHEDPEVQFNWYVDGVEVHNAKTKPREEQFNSTFRVVSVLTVVHQDWLNGKEYKCKVSNKGLPAPIEKTISKTKGQPREPQVYTLPPSREEMTKNQVSLTCLVEGFYPSDIAVEWESNGQPENNYKTTPPMLDSDGSFFLYSELTVDKSRWQQGNVFSCSVMHEALHNHYTQKSLSLSPGK light: DIVMTQSPDSLAVSLGERATISCRASESVDNYGISFMKWFQQKPGQPPKLLIYAASNQGSGVPDRFSGSGSGTDFTLTISSLQAEDVAVYYCQQSKEVPWTFGGGTKVEIKRTVAAPSVIFPPSDEQLKSGTASVVCLLNNFYPREAKVQWKVDNALQSGNSQESVTEQDSKDSTYSLSSTLTLSKADYEKHKVYACEVTHQGLSSPVTKSFNRGEC | binds
2 | anti-VEGF/anti-DLL4 bispecific antibody 219R45-MB-21M18 (bispecific antibody, human IgG2, Monovalent/bispecific (MB) IgG2 heterodimer with charge-modified CH3 domains and two identical light chains) heavy 1: QVQLVQSGAEVKKPGASVKVSCKASGYTFTNYWMHWVRQAPGQGLEWMGDINPSNGRTSYKEKFKRRVTLSVDKSSSTAYMELSSLRSEDTAVYFCTIHYDDKYYPLMDYWGQGTLVTVSSASTKGPSVFPLAPCSRSTSESTAALGCLVKDYFPEPVTVSWNSGALTSGVHTFPAVLQSSGLYSLSSVVTVPSSNFGTQTYTCNVDHKPSNTKVDKTVERKCCVECPPCPAPPVAGPSVFLFPPKPKDTLMISRTPEVTCVVVDVSHEDPEVQFNWYVDGVEVHNAKTKPREEQFNSTFRVVSVLTVVHQDWLNGKEYKCKVSNKGLPAPIEKTISKTKGQPREPQVYTLPPSREKMTKNQVSLTCLVKGFYPSDIAVEWESNGQPENNYKTTPPMLKSDGSFFLYSKLTVDKSRWQQGNVFSCSVMHEALHNHYTQKSLSLSPGK heavy 2: QVQLVQSGAEVKKPGASVKISCKASGYSFTAYYIHWVKQAPGQGLEWIGYISSYNGATNYNQKFKGRVTFTTDTSTSTAYMELRSLRSDDTAVYYCARDYDYDVGMDYWGQGTLVTVSSASTKGPSVFPLAPCSRSTSESTAALGCLVKDYFPEPVTVSWNSGALTSGVHTFPAVLQSSGLYSLSSVVTVPSSNFGTQTYTCNVDHKPSNTKVDKTVERKCCVECPPCPAPPVAGPSVFLFPPKPKDTLMISRTPEVTCVVVDVSHEDPEVQFNWYVDGVEVHNAKTKPREEQFNSTFRVVSVLTVVHQDWLNGKEYKCKVSNKGLPAPIEKTISKTKGQPREPQVYTLPPSREEMTKNQVSLTCLVEGFYPSDIAVEWESNGQPENNYKTTPPMLDSDGSFFLYSELTVDKSRWQQGNVFSCSVMHEALHNHYTQKSLSLSPGK light: DIVMTQSPDSLAVSLGERATISCRASESVDNYGISFMKWFQQKPGQPPKLLIYAASNQGSGVPDRFSGSGSGTDFTLTISSLQAEDVAVYYCQQSKEVPWTFGGGTKVEIKRTVAAPSVIFPPSDEQLKSGTASVVCLLNNFYPREAKVQWKVDNALQSGNSQESVTEQDSKDSTYSLSSTLTLSKADYEKHKVYACEVTHQGLSSPVTKSFNRGEC | binds
3 | anti-VEGF/anti-DLL4 bispecific antibody 219R45-MB-21R75 (bispecific antibody, human IgG2, Monovalent/bispecific IgG2 heterodimer with charge-modified CH3 domains and two identical light chains) heavy 1: QVQLVQSGAEVKKPGASVKVSCKASGYTFTNYWMHWVRQAPGQGLEWMGDINPSNGRTSYKEKFKRRVTLSVDKSSSTAYMELSSLRSEDTAVYFCTIHYDDKYYPLMDYWGQGTLVTVSSASTKGPSVFPLAPCSRSTSESTAALGCLVKDYFPEPVTVSWNSGALTSGVHTFPAVLQSSGLYSLSSVVTVPSSNFGTQTYTCNVDHKPSNTKVDKTVERKCCVECPPCPAPPVAGPSVFLFPPKPKDTLMISRTPEVTCVVVDVSHEDPEVQFNWYVDGVEVHNAKTKPREEQFNSTFRVVSVLTVVHQDWLNGKEYKCKVSNKGLPAPIEKTISKTKGQPREPQVYTLPPSREKMTKNQVSLTCLVKGFYPSDIAVEWESNGQPENNYKTTPPMLKSDGSFFLYSKLTVDKSRWQQGNVFSCSVMHEALHNHYTQKSLSLSPGK heavy 2: QVQLVQSGAEVKKPGASVKISCKASGYSFTAYYIHWVKQAPGQGLEWIGYIAGYKDATNYNQKFKGRVTFTTDTSTSTAYMELRSLRSDDTAVYYCARDYDYDVGMDYWGQGTLVTVSSASTKGPSVFPLAPCSRSTSESTAALGCLVKDYFPEPVTVSWNSGALTSGVHTFPAVLQSSGLYSLSSVVTVPSSNFGTQTYTCNVDHKPSNTKVDKTVERKCCVECPPCPAPPVAGPSVFLFPPKPKDTLMISRTPEVTCVVVDVSHEDPEVQFNWYVDGVEVHNAKTKPREEQFNSTFRVVSVLTVVHQDWLNGKEYKCKVSNKGLPAPIEKTISKTKGQPREPQVYTLPPSREEMTKNQVSLTCLVEGFYPSDIAVEWESNGQPENNYKTTPPMLDSDGSFFLYSELTVDKSRWQQGNVFSCSVMHEALHNHYTQKSLSLSPGK light: DIVMTQSPDSLAVSLGERATISCRASESVDNYGISFMKWFQQKPGQPPKLLIYAASNQGSGVPDRFSGSGSGTDFTLTISSLQAEDVAVYYCQQSKEVPWTFGGGTKVEIKRTVAAPSVIFPPSDEQLKSGTASVVCLLNNFYPREAKVQWKVDNALQSGNSQESVTEQDSKDSTYSLSSTLTLSKADYEKHKVYACEVTHQGLSSPVTKSFNRGEC | binds
4 | anti-VEGF/anti-DLL4 bispecific antibody 219R45-MB-21R79 (bispecific antibody, human IgG2, Monovalent/bispecific IgG2 heterodimer with charge-modified CH3 domains and two identical light chains) heavy 1: QVQLVQSGAEVKKPGASVKVSCKASGYTFTNYWMHWVRQAPGQGLEWMGDINPSNGRTSYKEKFKRRVTLSVDKSSSTAYMELSSLRSEDTAVYFCTIHYDDKYYPLMDYWGQGTLVTVSSASTKGPSVFPLAPCSRSTSESTAALGCLVKDYFPEPVTVSWNSGALTSGVHTFPAVLQSSGLYSLSSVVTVPSSNFGTQTYTCNVDHKPSNTKVDKTVERKCCVECPPCPAPPVAGPSVFLFPPKPKDTLMISRTPEVTCVVVDVSHEDPEVQFNWYVDGVEVHNAKTKPREEQFNSTFRVVSVLTVVHQDWLNGKEYKCKVSNKGLPAPIEKTISKTKGQPREPQVYTLPPSREKMTKNQVSLTCLVKGFYPSDIAVEWESNGQPENNYKTTPPMLKSDGSFFLYSKLTVDKSRWQQGNVFSCSVMHEALHNHYTQKSLSLSPGK heavy 2: QVQLVQSGAEVKKPGASVKISCKASGYSFTAYYIHWVKQAPGQGLEWIGYIANYNRATNYNQKFKGRVTFTTDTSTSTAYMELRSLRSDDTAVYYCARDYDYDVGMDYWGQGTLVTVSSASTKGPSVFPLAPCSRSTSESTAALGCLVKDYFPEPVTVSWNSGALTSGVHTFPAVLQSSGLYSLSSVVTVPSSNFGTQTYTCNVDHKPSNTKVDKTVERKCCVECPPCPAPPVAGPSVFLFPPKPKDTLMISRTPEVTCVVVDVSHEDPEVQFNWYVDGVEVHNAKTKPREEQFNSTFRVVSVLTVVHQDWLNGKEYKCKVSNKGLPAPIEKTISKTKGQPREPQVYTLPPSREEMTKNQVSLTCLVEGFYPSDIAVEWESNGQPENNYKTTPPMLDSDGSFFLYSELTVDKSRWQQGNVFSCSVMHEALHNHYTQKSLSLSPGK light: DIVMTQSPDSLAVSLGERATISCRASESVDNYGISFMKWFQQKPGQPPKLLIYAASNQGSGVPDRFSGSGSGTDFTLTISSLQAEDVAVYYCQQSKEVPWTFGGGTKVEIKRTVAAPSVIFPPSDEQLKSGTASVVCLLNNFYPREAKVQWKVDNALQSGNSQESVTEQDSKDSTYSLSSTLTLSKADYEKHKVYACEVTHQGLSSPVTKSFNRGEC | binds
